# Data reported in patent US20240327495A1.
# No constants are given. Whether binding was seen depends on the method and setting. Sequences can lack the tags named with a protein.
# B1: His6-Thrombin site-SpyTag003-SBTI (wild-type SBTI) (protein, not shown: small tags and cut ends)
# chain: DFVLDNEGNPLENGGTYYILSDITAFGGIRAAPTGNERCPLTVVQSRNELDKGIGTIISSPYRIRFIAEGHPLSLKFDSFAVIMLCVGIPTEWSVVEDLPEGPAVKIGENKDAMDGWFRLERVSDDEFNNYKLVFCPQQAEDDKCGDIGISIDHDDGTRRLVVSKNKPLVVQFQKLDKESL
# Target: β-lactamase (BLA)
# Assay: ELISA, antigen-coated wells, 500 nM gastrobody, detected with polyclonal anti-SBTI antibody
binder,measurement,value
B1,binding,no binding (tested: 500 nM)
